# Reference: article PMC6954021
# Protein sequences, listed by entry. Tags and fused reporters are not part of them.
# UniProt O74456: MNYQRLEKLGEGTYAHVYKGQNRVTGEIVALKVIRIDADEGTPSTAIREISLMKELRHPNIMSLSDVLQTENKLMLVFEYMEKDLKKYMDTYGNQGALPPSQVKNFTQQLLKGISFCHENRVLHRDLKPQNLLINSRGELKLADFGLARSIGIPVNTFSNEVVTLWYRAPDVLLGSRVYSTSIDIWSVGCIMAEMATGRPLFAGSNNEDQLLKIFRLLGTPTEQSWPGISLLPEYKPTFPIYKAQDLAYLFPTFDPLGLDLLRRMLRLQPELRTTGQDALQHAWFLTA
# No constants are given. Whether binding was seen depends on the method and setting. Binding seen in cells or lysates may run through a third protein. Some binding calls cover weakened binding; strength is not graded here. For some assays here: Sequences can lack the tags named with a protein.
# T1: Psl1-GFP (S. pombe) (UniProt O42979)
# T1 sequence: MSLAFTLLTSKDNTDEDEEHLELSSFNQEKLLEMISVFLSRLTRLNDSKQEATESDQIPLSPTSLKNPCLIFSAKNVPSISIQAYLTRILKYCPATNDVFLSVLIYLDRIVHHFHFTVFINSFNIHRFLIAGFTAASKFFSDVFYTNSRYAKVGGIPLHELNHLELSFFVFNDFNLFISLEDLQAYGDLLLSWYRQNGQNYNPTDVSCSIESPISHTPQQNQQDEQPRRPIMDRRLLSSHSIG
# B1: Psm1 (protein, UniProt O94383 1-1228)
# chain: MGRLLRLEVENFKSYRGHQIIGPFEDFTSIIGPNGAGKSNLMDAISFVLGVKSSHLRSTNVKELIYRGKILQRDNTDFTDSSNPTTAYVKLMYELDNGEQREYKRAITPSGATEYKIDEEIVTFSEYCGSLQKENILVRARNFLVFQGDVETIASQSPLELSKLVEQISGSLEYKSEYDKSKDEQDKAVNLSAHSFNKKRGINAELRQYQEQKTEAERYQSQKEKRDSAQLVYLLWKLFHLEKSISSNMAEVTRLKADSIQLIERRDENTKEIEKLKEKEGSIRRNLLAFDRKVRKQEKLIASKRPELISIAEKALESKSNLRKIQRKAAEIEKDYSDQASTLQVLENQLTSLSAAEKEFLKDMQEKEQLKGLRLLPEDKEEYEGLRSEADKLNSNLLFKLQTLNRNIKVTSQSKDSLTSIVGDLESKIKSLHESVSSLDTERADLLAKINEKIESLELEKHDQQKKRLTYSELFHKTQELNEELQSCLQKILEASADRNESKQDAKKREALYALKRIYPEVKGRIIDLCTPTQKKYESAIAAALGKNFDAIVVETQAVAKECIDYIKEQRIGIMTFFPMDTIAASPVNQKFRGTHKGARLAIDVLNFESEYERVMISAVGNTLICDSMTVARDLSYNKRLNAKTVTLEGTVIHKTGLITGGSSNNRSAKHWDDHDFDLLTQTKDRLMHQIGEIEYQKSSCVITESDTVKLHSLESEISLLKDKYTVVSRSVEDKKKEIGHYESLIKEKQPHLSELEMELRNFVKSRDELQIQVEKVEEKIFSGFCKRIGISDIHTYDEIHRTFTQSFTQKQLEFTKQKSLLENRISFEKQRVSDTRLRLERMHKFIEKDQESIDNYEQNREALESEVATAEAELELLKEDFASENSKTEKILLAASEKKLVGKRLVSELTKLSGNITLLESEIDRYVSEWHAILRKCKLEDIDVPLREGSLTSIPIDDVSNSGDITMGEEPSEPVINFEKFGVEVDYDELDEELRNDGSESMASVLQEKLREYSEELDQMSPNLRAIERLETVETRLAKLDEEFAAARKAAKNAKERFNAVKQKRLQKFQAAFSHISEQIDPIYKELTKSPAFPLGGTAYLTLDDLDEPYLGGIKFHAMPPMKRFRDMDQLSGGEKTMAALALLFAIHSYQPSPFFVLDEIDAALDQTNVTKIANYIRQHASSGFQFVVISLKNQLFSKSEALVGIYRDQQENSSRTLSINLEGYVE
# Columns and labels:
# Pef1 (S. pombe) = Pef1 (S. pombe) (UniProt O74456); experiment: co-IP
# Psl1-GFP (S. pombe) = target: T1, Psl1-GFP (S. pombe); experiment: co-IP
Molecule,binding (Pef1 (S. pombe)),binding (Psl1-GFP (S. pombe))
cohesin (from UniProt O94383 1-1228; O42649 1-1194; P30776 1-628) (complex),binds,
B1,,binds
